This test has as its system Jurkat. As to the kind of experiment: cells. The note with it: Homo sapiens, 72 h. An excerpt: PEER and Jurkat cell lines were purchased from the American Type Culture Collection (ATCC, Manassas, Va.). SIL-ALL and BE-13 were purchased from the Deutsche Sammlung von Mikroorganismen and Zellkulturen GmbH (DSMZ, Braunschweig, Germany).

Among the data in patent publication US20110263609A1 (priority 2007, published 2011) are IC50 values, retold here.

pIC50: −log10 of the molar value.

Usually pIC50 stands for −log10 of the IC50, conventionally taken in molar units. Low values mean a large IC50, high ones a small IC50.

Molecule `Cc1ccc(NC(=O)c2ccc(CN3CCN(C)CC3)cc2)cc1Nc1nccc(-c2cccnc2)n1` [imatinib] had a pIC50 of less than 5.00.
